The values that follow come from patent publication CN105646710A.

Chains of the proteins cited; added tags and fusions are not shown. Residues count along the entry.
UniProt P35968, residues 20-764: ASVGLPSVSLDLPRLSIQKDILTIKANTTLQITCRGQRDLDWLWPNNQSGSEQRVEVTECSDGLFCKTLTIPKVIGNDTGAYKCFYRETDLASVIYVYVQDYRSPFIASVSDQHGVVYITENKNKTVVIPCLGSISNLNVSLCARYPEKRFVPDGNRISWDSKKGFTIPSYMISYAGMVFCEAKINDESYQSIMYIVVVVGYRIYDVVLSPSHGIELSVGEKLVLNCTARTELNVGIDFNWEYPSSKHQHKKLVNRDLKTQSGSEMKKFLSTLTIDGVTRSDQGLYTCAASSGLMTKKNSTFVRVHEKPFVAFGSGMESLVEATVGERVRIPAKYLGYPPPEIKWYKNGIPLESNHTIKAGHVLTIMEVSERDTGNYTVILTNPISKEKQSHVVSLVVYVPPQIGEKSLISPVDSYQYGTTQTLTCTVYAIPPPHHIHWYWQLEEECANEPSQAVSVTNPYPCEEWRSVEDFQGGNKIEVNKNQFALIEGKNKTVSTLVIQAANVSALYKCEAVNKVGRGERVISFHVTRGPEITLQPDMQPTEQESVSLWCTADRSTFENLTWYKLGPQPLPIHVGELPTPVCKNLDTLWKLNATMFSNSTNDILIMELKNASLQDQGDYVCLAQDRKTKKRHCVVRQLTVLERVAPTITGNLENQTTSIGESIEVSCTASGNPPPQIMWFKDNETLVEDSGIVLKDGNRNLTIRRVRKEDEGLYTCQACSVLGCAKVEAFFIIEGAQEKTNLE

No constants are given. Whether binding was seen depends on the method and setting. Some entries that bind do so weakly or less than the wild type.

This test addresses VEGFR-2 (UniProt P35968). In words: phage panning on immobilised VEGFR-2 and mirrorball assay with biotinylated VEGFR-2.

B1: 抗VEGFR-2抗体, 轻链可变区 SEQ ID NO 4, 重链可变区 SEQ ID NO 7 (scFv, V domains shown)
VH: EVQLVQSGGGLVKPGGSLRLSCAASGFTFSSYSMNWVRQAPGKGLEWVSSISSSSSYIYYADSVKGRFTISRDNAKNSLYLQMNSLRAEDTAVYYCARVTDAFDIWGQGTMVTVSS
VL: DIQLTQSPSSVSASVGDRVTLTCRASQSIKRWLAWYQQKPGKAPRLLIYAASTLQSGVPSRFSGGGSGTDETLTINSLQPEDFAIYYCQQANSFPPTFGPGTKVDIK
For B1, the binding result is “binds”.

B2: 抗VEGFR-2抗体, 轻链可变区 SEQ ID NO 3, 重链可变区 SEQ ID NO 7 (scFv, V domains shown)
VH: B1 VH
VL: DIQMTQSPSSVSASIGDRVTITCRASQGIDNWLGWYQQKPGKAPKLLIYDASNLDTGVPSRFSGSGSGTYFTLTISSLQAEDFAVYFCQQAKAFPPTFGGGTKVDIK
With B2, the binding entry is recorded as “binds”.

B3: 抗VEGFR-2抗体, 轻链可变区 SEQ ID NO 6, 重链可变区 SEQ ID NO 7 (scFv, V domains shown)
VH: B1 VH
VL: DIQLTQSPSSVSASVGDSVTITCRASQDISSWLAWYQQKPGEAPKLLIYAASLLQSGVPSRFSGSGSGTDFALTINSLQPEDFATYFCQQADSFPPTFGQGTRLEIK
For the molecule B3, the binding result was “binds”.

B4: 抗VEGFR-2抗体, 轻链可变区 SEQ ID NO 5, 重链可变区 SEQ ID NO 7 (scFv, V domains shown)
VH: B1 VH
VL: DVVMTQSPSSLSASVGDRVTITCRASQNINNYLNWYQQKPGKAPKLLIYAASTLQSGVPSRFSGSGSGTDFTLTITSLQPEDSATYYCQQYSRYPPTFGGGTKVEI
Consider B4, for which the binding entry is given as “binds”.

B5: 抗VEGFR-2抗体, 轻链可变区 SEQ ID NO 1, 重链可变区 SEQ ID NO 7 (scFv, V domains shown)
VH: B1 VH
VL: EIVMTQSPATLSLSPGERATLSCRASQSVSSYLAWYQQKPGQAPRLLIYDSSNRATGIPARFSGSGSGTDFTLTISSLEPEDFATYYCLQHNTFPSTFGQGTKVEIK
On to B5, for which the binding result was “binds”.

B6: 抗VEGFR-2抗体, 轻链可变区 SEQ ID NO 2, 重链可变区 SEQ ID NO 7 (scFv, V domains shown)
VH: B1 VH
VL: DIQLTQSPSSVSASVGDRVTITCRASQGISSRLAWYQQKPGKAPKLLIYAASSLQTGVPSRFSGSGSGTDFTLTISSLQPEDFATYYCQQANRFPPTFGPGTKVDIK
Consider B6, for which the binding entry is “binds”.
